Article PMC8636563

Target: T1, Nse2_(short) (budding yeast (Saccharomyces cerevisiae)) (UniProt P38632)
T1 sequence: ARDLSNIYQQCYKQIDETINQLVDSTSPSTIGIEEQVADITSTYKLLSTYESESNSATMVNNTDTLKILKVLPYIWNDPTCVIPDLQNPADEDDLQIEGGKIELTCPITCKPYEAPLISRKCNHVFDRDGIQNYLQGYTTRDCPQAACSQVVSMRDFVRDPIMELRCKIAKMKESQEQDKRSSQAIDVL
Assay: crystal structure; shortNse2/Arm-Smc5, ΔN18 Smt3 and the A129K/K153R Ubc9-FL Smt3 thioester mimetic mixed equimolar (~7 µM each) in 20 mM Tris-HCl pH 8.0, 100 mM NaCl, 1 mM BME, concentrated to 9 mg/mL; hanging drop, 18 °C; 3.3 Å; both purified

With “ΔN18 Smt3 (yeast (Saccharomyces cerevisiae)) (domain or fragment)” the binding was “binds”.

These are yes or no findings as the source states them, for the method shown. Binding calls can cover weak binding; strength is not graded here. Sequences can lack the tags named with a protein.
